# Test results as given in article PMC9897671.
# By UniProt entry, the sequences of proteins in these tests, tags left out.
# UniProt Q08211: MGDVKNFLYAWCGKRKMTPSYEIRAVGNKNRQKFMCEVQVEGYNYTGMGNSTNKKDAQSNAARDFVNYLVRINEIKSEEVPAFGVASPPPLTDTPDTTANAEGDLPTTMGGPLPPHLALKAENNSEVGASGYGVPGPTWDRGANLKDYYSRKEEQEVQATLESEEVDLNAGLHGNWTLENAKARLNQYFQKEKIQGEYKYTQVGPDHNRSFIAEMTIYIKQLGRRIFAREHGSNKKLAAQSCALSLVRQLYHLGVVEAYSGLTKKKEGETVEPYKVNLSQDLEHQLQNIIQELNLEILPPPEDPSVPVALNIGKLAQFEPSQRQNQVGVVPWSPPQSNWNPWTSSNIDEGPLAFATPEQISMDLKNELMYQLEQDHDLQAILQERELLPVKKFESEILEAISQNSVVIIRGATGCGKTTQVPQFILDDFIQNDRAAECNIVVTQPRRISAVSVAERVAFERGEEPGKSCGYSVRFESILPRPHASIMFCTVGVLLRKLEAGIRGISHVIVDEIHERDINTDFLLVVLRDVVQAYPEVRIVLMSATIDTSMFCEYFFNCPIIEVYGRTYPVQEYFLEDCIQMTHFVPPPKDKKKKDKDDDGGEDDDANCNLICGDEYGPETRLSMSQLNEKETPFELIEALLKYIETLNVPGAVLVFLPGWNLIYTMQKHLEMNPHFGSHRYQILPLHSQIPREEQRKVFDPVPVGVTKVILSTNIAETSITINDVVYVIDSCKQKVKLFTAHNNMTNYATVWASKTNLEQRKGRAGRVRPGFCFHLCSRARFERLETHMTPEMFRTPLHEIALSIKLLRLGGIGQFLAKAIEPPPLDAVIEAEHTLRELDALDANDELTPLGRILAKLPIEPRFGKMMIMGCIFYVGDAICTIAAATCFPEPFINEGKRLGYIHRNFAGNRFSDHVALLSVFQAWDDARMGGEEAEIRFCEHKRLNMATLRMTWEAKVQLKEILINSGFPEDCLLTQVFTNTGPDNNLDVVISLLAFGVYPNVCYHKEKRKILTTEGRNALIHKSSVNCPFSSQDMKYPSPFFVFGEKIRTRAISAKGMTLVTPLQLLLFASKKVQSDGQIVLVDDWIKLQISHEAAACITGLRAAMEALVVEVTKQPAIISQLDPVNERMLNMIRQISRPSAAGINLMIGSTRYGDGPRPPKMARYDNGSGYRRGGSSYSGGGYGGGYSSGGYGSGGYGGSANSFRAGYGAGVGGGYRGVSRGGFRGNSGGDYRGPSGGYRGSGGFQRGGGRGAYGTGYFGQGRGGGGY
# UniProt P42224: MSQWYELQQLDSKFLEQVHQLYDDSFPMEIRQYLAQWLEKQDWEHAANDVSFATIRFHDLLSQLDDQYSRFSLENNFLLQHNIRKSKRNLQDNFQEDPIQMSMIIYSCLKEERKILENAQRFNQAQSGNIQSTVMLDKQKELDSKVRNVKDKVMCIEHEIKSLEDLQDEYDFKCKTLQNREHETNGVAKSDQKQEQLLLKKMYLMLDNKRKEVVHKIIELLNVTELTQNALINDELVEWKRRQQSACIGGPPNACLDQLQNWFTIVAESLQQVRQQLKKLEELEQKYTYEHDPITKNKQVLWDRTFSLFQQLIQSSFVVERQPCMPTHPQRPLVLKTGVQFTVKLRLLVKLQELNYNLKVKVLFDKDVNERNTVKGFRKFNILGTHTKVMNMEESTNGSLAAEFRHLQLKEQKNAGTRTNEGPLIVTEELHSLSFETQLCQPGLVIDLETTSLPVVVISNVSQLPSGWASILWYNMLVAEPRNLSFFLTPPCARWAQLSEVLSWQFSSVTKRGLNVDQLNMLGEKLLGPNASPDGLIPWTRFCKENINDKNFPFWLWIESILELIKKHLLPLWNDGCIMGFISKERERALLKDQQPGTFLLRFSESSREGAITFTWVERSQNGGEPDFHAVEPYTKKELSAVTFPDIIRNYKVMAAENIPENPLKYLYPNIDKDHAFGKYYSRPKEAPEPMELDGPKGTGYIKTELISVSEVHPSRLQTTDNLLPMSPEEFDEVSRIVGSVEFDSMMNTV
# These are yes or no findings as the source states them, for the method shown. In cells and extracts the contact can be indirect. Some entries that bind do so weakly or less than the wild type.
# Biological target: Flag-tagged DHX9 (UniProt Q08211)
# Assay: co-IP
substance,measurement,value
GFP-tagged STAT1 (from UniProt P42224 1-750),binding,binds
